Data as given in PubChem BioAssay AID1259254 (NCATS, 2017).
The deposit covers about 59,000 reagents; this is a random part of them. Of all reagents, about 1,550 (2.6%) are marked active. 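G2 share is only a proxy for re-replication; each gene was hit by three separate siRNAs, and active genes were retested.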 Reagents against one gene are numbered here. Further read-outs or replicates are left out here. Not given: the amount of reagent.

Screen: 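Gene knock-downs that lead to re-replication, shown by excess G2 DNA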 (primary screen)
System: human HCT116 colorectal cancer cells
Reagents: single siRNA against human genes
Time to read-out: 3 days
Measured: 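Imaged Hoechst DNA stain sorts each cell into a cycle phase by DNA amount; per plate, G2 fraction set to 0% for non-targeting and 100% for GMNN siRNA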
Reading the numbers: G2 robust z-score: higher = more G2 cells, more excess DNA replication
Call rule: 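Active siRNAs have a G2 robust z of 5 or more median absolute deviations over the median, which in these data means about 38% or higher of GMNN control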

SLAMF7 (GeneID 57823) #1 scored G2 robust z-score -0.27; inactive.
Against SLAMF7 (GeneID 57823) #2, the values are G2 robust z-score -1.04; inactive.
SLAMF7 (GeneID 57823) #3 gave G2 robust z-score 1.32; inactive.
EBPL (GeneID 84650) #1 gave G2 robust z-score -0.228; inactive.
After knock-down of EBPL (GeneID 84650) #2, the record shows G2 robust z-score 1.09; inactive.
With knock-down of EBPL (GeneID 84650) #3 the results were G2 robust z-score -0.675; inactive.
CPSF7 (GeneID 79869) #1 scored G2 robust z-score 1.57; inactive.
After knock-down of CPSF7 (GeneID 79869) #2, the record shows G2 robust z-score -0.7; inactive.
After knock-down of CPSF7 (GeneID 79869) #3, the screen gave G2 robust z-score 3.75; inactive.
ZNF221 (GeneID 7638) #1 showed G2 robust z-score -0.704; inactive.
For ZNF221 (GeneID 7638) #2, the entry reads G2 robust z-score -0.381; inactive.
Silencing of ZNF221 (GeneID 7638) #3 came out at: G2 robust z-score 0.186; inactive.

In a second layout: results already given.
| gene symbol | reagent | G2 robust z-score | Outcome |
| --- | --- | --- | --- |
| SLAMF7 (GeneID 57823) | 3 | 1.32 | inactive |
| EBPL (GeneID 84650) | 1 | -0.228 | inactive |

The results go on.
DNAH12 (GeneID 201625) #1 scored G2 robust z-score -0.638; inactive.
Depletion of DNAH12 (GeneID 201625) #2 came out at: G2 robust z-score -0.606; inactive.
Against DNAH12 (GeneID 201625) #3, the entry reads G2 robust z-score 2.7; inactive.
Silencing of DNAH12 (GeneID 201625) #4 came out at: G2 robust z-score 1.05; inactive.
Silencing of DNAH12 (GeneID 201625) #5 came out at: G2 robust z-score -0.258; inactive.
After knock-down of DNAH12 (GeneID 201625) #6 the results were G2 robust z-score 0.619; inactive.
